This test deals with latent human PAI-1 (human) (UniProt P05121). Kind of test: SEC; excess of MEDI-579 incubated with the latent PAI-1 material and run on a size exclusion column; fractions analysed by SDS gel densitometry; both purified.

Chains of the proteins cited; added tags and fusions are not shown. Residues count along the entry.
UniProt P05121, residues 24-402: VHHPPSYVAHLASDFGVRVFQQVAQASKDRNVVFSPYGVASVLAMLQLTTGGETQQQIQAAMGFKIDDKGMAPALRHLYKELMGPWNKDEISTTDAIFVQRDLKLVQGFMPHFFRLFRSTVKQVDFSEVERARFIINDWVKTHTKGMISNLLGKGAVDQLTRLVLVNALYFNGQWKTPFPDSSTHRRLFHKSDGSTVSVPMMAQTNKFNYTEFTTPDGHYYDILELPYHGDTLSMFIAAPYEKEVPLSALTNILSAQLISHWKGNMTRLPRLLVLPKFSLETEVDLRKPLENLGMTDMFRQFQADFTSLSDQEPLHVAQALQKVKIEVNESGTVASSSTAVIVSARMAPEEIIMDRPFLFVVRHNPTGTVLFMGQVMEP

Results are given in words; binding and its absence hold for the method and conditions named.

As to “latent human PAI-1 (from UniProt P05121 24-402) (other; other documents disagree on this pair)”, the binding entry is “no binding”.

These data come from article PMC6367345 (Scientific Reports, 2019).
